Measurements: patent US3972883A, “1,6-Dimethyl-8β-[2' or 3'-pyrroyloxyethyl or substituted pyrroyloxyethyl]-10α-methoxyergolene compounds” (Societa Farmaceutici Italia S.p.A., priority 1973, dated 1976)
At least one structure is not confirmed: it was looked up by name or label, or the drawing left a doubt.

Test system: contractions caused by Adrenaline in seminal small bladder of Guinea-pig
Test: Adrenolytic activity "in vitro": inhibition of contractions induced by Adrenaline in isolated seminal small bladder
Conditions: Tyrode, 38°C, 3 minutes of contact, 1 mcg/ml Adrenaline
Procedure: The adrenolytic activity of the new esters has been studied in comparison with that of Nicergoline [1,6-dimethyl-8β-(5'-bromonicotinoyloxymethyl)-10α-methoxyergoline] and of dihydroergotamine. The activity "in vitro" has been determined employing seminal small bladder of Guinea-pig immersed in Tyrode liquid wherein oxygen and 5% carbon dioxide are bubbled.
The bath temperature is maintained constant at 38°C. The contractions induced by Adrenaline are registered on a chimograph by means of an isotonic lever. The activity of the drug under examination is expressed as the concentration in mcg/ml able, after 3 minutes of contact, to inhibit 50% of the contractions caused by 1 mcg/ml of Adrenaline (IC50).

Compound | IC50 (concentration inhibiting 50% of the contractions caused by 1 mcg/ml of Adrenaline) [µg/mL]
CCn1cccc1C(=O)OCC[C@H]1CN(C)[C@@H]2Cc3cn(C)c4cccc(c34)[C@@]2(OC)C1 [1,6-Dimethyl-8β-[1'-ethyl-2'-pyrroyloxyethyl]-10α-methoxyergoline] | 0.001
CO[C@]12C[C@@H](CCOC(=O)c3[nH]c(C)cc3C)CN(C)[C@@H]1Cc1cn(C)c3cccc2c13 [1,6-Dimethyl-8β-[3',5'-dimethyl-2'-pyrroyloxyethyl]-10α-methoxyergoline] | 0.05
CO[C@]12C[C@@H](CCOC(=O)c3c(C)cc(C)n3C)CN(C)[C@@H]1Cc1cn(C)c3cccc2c13 [1,6-Dimethyl-8β-[1',3',5'-trimethyl-2'-pyrroyloxyethyl]-10α-methoxyergoline] | 0.1
CO[C@]12C[C@@H](CCOC(=O)c3ccc[nH]3)CN(C)[C@@H]1Cc1cn(C)c3cccc2c13 [1,6-Dimethyl-8β-[2'-pyrroyloxyethyl]-10α-methoxyergoline] | 0.005
